Data as given in article PMC7190626.
No constants are given. Whether binding was seen depends on the method and setting. In cells and extracts the contact can be indirect. Here binding means that the protein was enriched with, or labelled near, the bait; the list need not be complete.

By UniProt entry, the sequences of proteins in these tests, tags left out.
UniProt P25100: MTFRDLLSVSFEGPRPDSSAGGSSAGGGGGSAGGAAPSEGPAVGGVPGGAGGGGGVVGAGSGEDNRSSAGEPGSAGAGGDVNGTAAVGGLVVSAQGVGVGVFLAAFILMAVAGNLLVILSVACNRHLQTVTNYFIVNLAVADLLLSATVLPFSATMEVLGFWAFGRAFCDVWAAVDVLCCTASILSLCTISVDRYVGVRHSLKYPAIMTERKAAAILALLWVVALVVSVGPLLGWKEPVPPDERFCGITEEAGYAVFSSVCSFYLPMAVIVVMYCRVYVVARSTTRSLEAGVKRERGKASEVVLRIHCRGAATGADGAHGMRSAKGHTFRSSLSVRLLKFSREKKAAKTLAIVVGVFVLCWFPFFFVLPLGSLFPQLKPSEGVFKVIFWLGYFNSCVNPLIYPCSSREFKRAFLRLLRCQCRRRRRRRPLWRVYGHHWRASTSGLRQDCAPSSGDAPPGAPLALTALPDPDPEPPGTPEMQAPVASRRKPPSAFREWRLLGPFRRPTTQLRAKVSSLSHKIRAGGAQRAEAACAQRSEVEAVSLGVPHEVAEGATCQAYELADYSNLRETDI
UniProt Q14160: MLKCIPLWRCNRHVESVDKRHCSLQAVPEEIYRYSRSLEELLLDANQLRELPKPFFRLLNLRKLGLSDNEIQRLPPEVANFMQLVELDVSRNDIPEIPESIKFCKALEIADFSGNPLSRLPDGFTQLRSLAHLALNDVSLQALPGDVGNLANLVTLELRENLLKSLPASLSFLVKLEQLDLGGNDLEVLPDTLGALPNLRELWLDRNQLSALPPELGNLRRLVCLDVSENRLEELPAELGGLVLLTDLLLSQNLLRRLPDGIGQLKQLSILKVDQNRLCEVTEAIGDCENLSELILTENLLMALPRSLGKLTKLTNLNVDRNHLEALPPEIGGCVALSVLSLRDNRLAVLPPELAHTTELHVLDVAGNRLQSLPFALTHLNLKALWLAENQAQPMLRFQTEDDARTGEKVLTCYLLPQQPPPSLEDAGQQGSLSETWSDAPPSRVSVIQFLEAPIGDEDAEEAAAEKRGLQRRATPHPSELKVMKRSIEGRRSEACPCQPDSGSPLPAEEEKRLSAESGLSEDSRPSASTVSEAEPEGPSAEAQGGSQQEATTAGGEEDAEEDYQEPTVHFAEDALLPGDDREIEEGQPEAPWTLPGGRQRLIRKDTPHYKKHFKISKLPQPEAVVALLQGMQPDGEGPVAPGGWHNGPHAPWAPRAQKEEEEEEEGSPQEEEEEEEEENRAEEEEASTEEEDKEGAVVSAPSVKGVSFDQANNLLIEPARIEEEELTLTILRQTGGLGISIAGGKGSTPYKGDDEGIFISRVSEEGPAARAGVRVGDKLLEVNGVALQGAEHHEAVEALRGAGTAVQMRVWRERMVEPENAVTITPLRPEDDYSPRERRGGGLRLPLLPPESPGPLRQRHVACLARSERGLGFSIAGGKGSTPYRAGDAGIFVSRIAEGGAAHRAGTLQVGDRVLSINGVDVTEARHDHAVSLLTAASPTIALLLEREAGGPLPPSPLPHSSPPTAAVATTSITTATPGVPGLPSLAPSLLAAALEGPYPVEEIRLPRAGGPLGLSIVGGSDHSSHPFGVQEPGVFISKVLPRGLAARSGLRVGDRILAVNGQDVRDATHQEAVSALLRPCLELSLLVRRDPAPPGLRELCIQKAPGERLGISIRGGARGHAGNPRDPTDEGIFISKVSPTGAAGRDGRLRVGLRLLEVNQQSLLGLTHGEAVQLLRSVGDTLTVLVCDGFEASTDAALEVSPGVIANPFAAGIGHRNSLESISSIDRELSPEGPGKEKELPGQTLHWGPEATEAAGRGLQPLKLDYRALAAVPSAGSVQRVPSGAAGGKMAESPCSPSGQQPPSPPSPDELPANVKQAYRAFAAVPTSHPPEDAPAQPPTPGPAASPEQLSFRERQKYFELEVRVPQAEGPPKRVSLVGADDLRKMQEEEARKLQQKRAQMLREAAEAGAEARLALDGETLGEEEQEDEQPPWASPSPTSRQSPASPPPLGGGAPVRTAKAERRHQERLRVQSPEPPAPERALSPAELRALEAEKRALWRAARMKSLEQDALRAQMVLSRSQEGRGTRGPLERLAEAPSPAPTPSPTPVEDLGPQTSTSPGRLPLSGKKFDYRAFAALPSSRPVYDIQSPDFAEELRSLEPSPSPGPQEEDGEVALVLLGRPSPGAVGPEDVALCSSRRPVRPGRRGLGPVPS

Molecular target: WT SNAP-α1D (N-terminal SNAP-epitope tagged α1D-adrenergic receptor) (UniProt P25100)
Experiment: affinity purification with mass spectrometry; SNAP-fusion proteins captured covalently from HEK293 lysate (20 mM Tris-HCl pH 8, 200 mM NaCl, 5 mM DTT, 1% NP-40) on SNAP-Capture pull-down resin, 16 hr at 4 °C; on-bead digest with Trypsin and Glu-C; nanoLC-MS/MS

binding: binds
Substance: scribble (from UniProt Q14160 1-1655)
